# In PubChem BioAssay AID493014 (National Center for Advancing Translational Sciences (NCATS), 2011):
# This is one part of the list. Further columns of the screen follow, without active or inactive calls. The list favours compounds with an active or inconclusive main result. The note in brackets gives the kind of curve behind each potency; many fits are weak.
# Experiment: qHTS Assay to Find Inhibitors of Chronic Active B-Cell Receptor Signaling
# Settings: ABC-DLBCL IkBa-CBG/CBR reporter, luminescence ratio (green luciferase fused to IkBa over red control in TMD8 lymphoma cells), 4 h
# How it was run: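 TMD8 ABC-DLBCL cells carrying doxycycline-inducible green luciferase fused to IkappaBalpha plus unfused red luciferase were exposed to compounds (up to 46 uM) for 4 hrs at 37C. Activity came from the overlap-corrected green/red luminescence ratio.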
# [1] = measured here: CBR red luminescence, cell number
# [2] = measured here: IkBa-CBG green luminescence
Structure (SMILES),AC50 [1],AC50 [2]
NS(=O)(=O)c1cccc(NC(=O)COc2ncnc3c2cnn3-c2ccccc2)c1,"12.6 µM [falling, single point]",–
COc1cccc(-c2ccnc3[nH]n(-c4ccccc4)c(=O)c23)c1,"2.82 µM [falling, full curve, poor fit]",–
CCOC(=O)c1[nH]c2c(c1C)C(=O)CC(c1ccc(F)cc1)C2 (stereo unspecified),"7.31 µM [rising, partial curve, poor fit]","6.51 µM [falling, partial curve]"
Cc1ccc(CNC(=O)CN2CCCC(C)C2)cc1 (stereo unspecified),"6.51 µM [rising, partial curve, poor fit]",–
Cc1cccc(N(Cc2cc3ccccc3[nH]c2=O)S(C)(=O)=O)c1,"35.5 µM [falling, single point]",–
C=CCn1c(CCNC(=O)c2cccs2)nnc1SCC(=O)Nc1cccc(F)c1,"2.06 µM [rising, partial curve, poor fit]",–
CC(C)CC(/C(O)=C(\C#N)c1nc2ccccc2[nH]1)N1C(=O)c2ccccc2C1=O (stereo unspecified),"20.6 µM [falling, partial curve, poor fit]",–
Cc1ccc(NC(=S)NCCC2=CCCCC2)cc1,"4.47 µM [rising, full curve, poor fit]",–
CCOC(=O)C(=O)Nc1ccccc1C(=O)Nc1ccc(OC)cc1,"29.1 µM [falling, single point]",–
NC(=O)[C@H]1CC2(CC(c3cccc(NC(=O)COc4ccc(Cl)cc4)c3)=NO2)CN1C(=O)Cc1ccc([N+](=O)[O-])cc1 (stereo partly specified),"10 µM [falling, partial curve, poor fit]",–
Cc1cc(C)c2cc(CN(CCN3CCCC3)C(=O)Nc3ccc(F)cc3)c(=O)[nH]c2c1,"22.4 µM [falling, single point]",–
Cc1cccc(Nc2nc(-c3c(C)nc4ccccn34)cs2)c1,"15.8 µM [falling, partial curve, poor fit]",–
O=C(COc1ccc2ccccc2c1)Nc1ccccc1C(=O)O,"0.316 µM [falling, full curve]",–
COc1ccc(CC(=O)Nc2cc(NC(=O)Cc3ccc(OC)c(OC)c3)cc(C(=O)O)c2)cc1OC,"22.4 µM [rising, partial curve, poor fit]",–
O=C(Cn1cc(SCc2ccc(F)cc2)c2ccccc21)N1CCOCC1,"25.9 µM [falling, single point]",–
O=C(N/C=C/c1ccco1)Nc1cccc(Cl)c1,"0.708 µM [rising, full curve, poor fit]",–
Cc1cc(C(=O)N/N=C/c2ccc(N3CCOCC3)cc2)c(C)o1,"14.1 µM [falling, partial curve]",–
O=c1c2ccccc2cnn1Cc1n[nH]c(=S)n1-c1ccccc1Cl,"32.6 µM [rising, single point]",–
Fc1ccc(/C=N/NC(=S)Nc2ccc(Cl)cc2Cl)cc1,"20 µM [rising, single point]",–
Cc1c(Cl)c([N+](=O)[O-])nn1CC(=O)N1CCc2ccccc2C1,"11.2 µM [falling, partial curve, poor fit]",–

Structure (SMILES),AC50 [1],AC50 [2]
O=C1CC(Cc2ccc(Cl)cc2)C(=O)N1c1cc(Cl)ccn1 (stereo unspecified),"4.47 µM [rising, partial curve, poor fit]",–
Cc1[nH]c(=O)[nH]c(=O)c1/C=N/NC(=O)[C@H](CC(C)C)NC(=O)OC(C)(C)C,"29.1 µM [falling, single point]",–
Cn1c(=O)c2c(nc(SCc3ccccc3F)n2C)n(C)c1=O,"3.55 µM [falling, partial curve]",–
COc1cc(N)ccc1NC(=O)c1cc2ccccc2o1,"35.5 µM [falling, single point]",–
Cc1cccc(CN2C(=O)/C(=C\c3ccc(C(=O)NCCN4CCOCC4)cc3)Sc3ccccc32)c1,"1.26 µM [rising, full curve]",–
CCNC(=O)CN(c1ccc(C)cc1)S(=O)(=O)c1ccccc1,"23.1 µM [rising, single point]",–
CCS(=O)(=O)Nc1ccc(C2=NN(C(=O)c3ccco3)C(c3ccc(C)cc3)C2)cc1 (stereo unspecified),"8.91 µM [falling, partial curve, poor fit]",–
O=C1c2ccccc2C(=O)N1/N=C/c1ccc(O)c(O)c1,"20.6 µM [falling, single point]",–
O=C(c1cc(-c2cccs2)on1)N1CCc2ccccc2C1,"14.6 µM [falling, single point]",–
CCN1C(=O)[C@H]2[C@@H](c3ccc(-c4cccc(Cl)c4)c(OC)c3)N[C@@](Cc3ccccc3)(C(=O)OC)[C@H]2C1=O,–,"6.51 µM [rising, partial curve, poor fit]"
Cc1[nH]n(-c2nc(-c3cccc([N+](=O)[O-])c3)cs2)c(=O)c1C,"32.6 µM [falling, single point]",–
COc1ccc(OC)c(N/C=C/C(=O)c2ccc(OC)c(OC)c2)c1,"5.62 µM [rising, full curve]",–
CCOC(=O)c1[nH]c(C)c(C(=O)N2CCc3ccccc32)c1C,"10 µM [rising, partial curve]","5.62 µM [falling, partial curve]"
N#Cc1c(/N=C/c2ccccc2)oc(-c2ccccc2)c1-c1ccccc1,"32.6 µM [falling, partial curve, poor fit]",–
O=C(O)CCN1C(=O)/C(=C/c2ccc(-c3nc4ccccc4s3)o2)SC1=S,"0.891 µM [falling, full curve]",–
CCOC(=O)Cc1[nH]nc2c1C(c1ccsc1)C(C#N)=C(N)O2 (stereo unspecified),"20 µM [falling, single point]",–
COc1ccc(-c2c(C)nn3c(NC4CCCC4)cc(C)nc23)cc1OC,"6.31 µM [falling, full curve]",–
Cc1ccccc1CS(=O)(=O)c1nnc([C@H](Cc2ccccc2)NC(=O)OC(C)(C)C)o1,"3.26 µM [falling, partial curve, poor fit]",–
Cc1ccc(NC(=O)CSc2cn[nH]n2)cc1,"11.2 µM [falling, partial curve]",–

# Part of the list above in order of molecular weight, low to high.
Structure (SMILES),AC50 [1],AC50 [2]
CCOC(=O)Cc1[nH]nc2c1C(c1ccsc1)C(C#N)=C(N)O2 (stereo unspecified),"20 µM [falling, single point]",–
COc1ccc(OC)c(N/C=C/C(=O)c2ccc(OC)c(OC)c2)c1,"5.62 µM [rising, full curve]",–
Cc1cccc(CN2C(=O)/C(=C\c3ccc(C(=O)NCCN4CCOCC4)cc3)Sc3ccccc32)c1,"1.26 µM [rising, full curve]",–
